Measurements reported in PubChem BioAssay AID686937 (Drosophila RNAi Screening Center, 2013).
Screen: 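Knock-downs that reduce output of a secreted reporter enzyme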 (primary screen). Cell system: Drosophila S2 cells expressing secreted horseradish peroxidase. Reagent: long dsRNA against Drosophila genes. Duration: about 5.5 days (5 days dsRNA, then 12 h reporter induction). Conditions: reporter expression induced after 5 days of dsRNA, read 12 h later; inducer not stated. Measurement: 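After 5 days of dsRNA and 12 h of reporter induction, medium peroxidase read by chemiluminescence and scored as per-plate z-score; higher values mean more reporter released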. Scale: z-score: higher = more reporter secreted into medium.
In all, the deposit lists about 23,000 reagents; shown is a random part of those that have a named target and a result. 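Reduced-secretion tags in replicate 1 do not always agree with the z-scores; no criterion for assigning the tags was given.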 Names joined by + are all predicted targets of the reagent. Not given: the amount of reagent.

gene	dsRNA	z-score, replicate 1	z-score, replicate 2	z-score, replicate 3	z-score, replicate 4	phenotype, replicate 1
zfh2 (Zn finger homeodomain 2)	DRSC17178	-0.42	-0.99			
Ypel (Yippee-like)	DRSC17996	0.48	0.41			
CG12118	DRSC17813	0.36	0.28			
PolA1 (DNA polymerase alpha subunit 1)	DRSC16640	0.38	-0.49			
CG13026	DRSC09906	0.3	0.32			
CG17198 + CG17197	DRSC15190	0.57	0.43			
CG17198 + CG17197	DRSC15191	0.54	0.54			
Clamp (Chromatin-linked adaptor for MSL proteins)	DRSC03718	0.21	0.6			
Clamp (Chromatin-linked adaptor for MSL proteins)	DRSC21682	-1.17	0.65			
kud (kuduk)	DRSC11086	-0.38	-0.09			
Rpn3 (Regulatory particle non-ATPase 3)	DRSC03318	-6.72	-5.37			reduced secretion
Sbf (SET domain binding factor)	DRSC16852	0.36	0.47			
EndoGI (Endonuclease G inhibitor)	DRSC01964	0.23	0.2			
Su(Tpl) (Suppressor of Triplolethal)	DRSC10954	-3.01	-2.53			reduced secretion
Asator	DRSC17136	0.47	0.27			
hrg (hiiragi)	DRSC07502	-1.99	-1.55			reduced secretion
CheB38c (Chemosensory protein B 38c)	DRSC02389	0.44	0.29			
CG18628	DRSC10328	0.46	0.67			
CG15506	DRSC15047	0.35	0.44			
CG10565	DRSC11620	0.08	0.08			
Rbf (Retinoblastoma-family protein)	DRSC18704	0.06	0.28			
MED20 (Mediator complex subunit 20)	DRSC03463	-0.84	-0.87			
Gdi (GDP dissociation inhibitor)	DRSC03330	0.22	0.2			
CG7634	DRSC11843	0.01	-0.72			
GstD5 (Glutathione S transferase D5)	DRSC16686	0.25	0.12			
CG12895	DRSC06210	0.28	0.26			
Ir56a (Ionotropic receptor 56a)	DRSC05776	0.25	0.35			
5-HT2B (5-hydroxytryptamine (serotonin) receptor 2B)	DRSC16360	0.42	0.58			
5-HT2B (5-hydroxytryptamine (serotonin) receptor 2B)	DRSC16362	0.41	0.5			
yellow-d	DRSC04589	0.58	0.4			
fig (fos intronic gene)	DRSC16270	0.38	0.08			
Cdc7 (Cdc7 kinase)	DRSC18428	0.4	0.73	0.71	0.6	
Cdc7 (Cdc7 kinase)	DRSC18429	0.36	0.22			
Cdc7 (Cdc7 kinase)	DRSC22133	0.63	0.72			
CG8066	DRSC16374	0.27	0.45			
CG1236	DRSC12203	0.39	0.55			
Pi3K92E (Phosphatidylinositol 3-kinase 92E)	DRSC16788	0.32	0.38			
ATPsyngamma (ATP synthase, gamma subunit)	DRSC14094	-0.04	-1.08			
CG10822	DRSC06005	0.2	0.3			
Ir68b (Ionotropic receptor 68b)	DRSC10251	0.43	0.25			
CG33158	DRSC09708	0.78	0.67			
CG33158	DRSC09709	0.37	0.2			
CG33158	DRSC10438	-0.01	0.17			
CG15429	DRSC00444	0.45	0.44			
Spn100A (Serpin 100A)	DRSC14596	0.11	0.3			
galectin	DRSC00305	0.35	0.45			
Or2a (Odorant receptor 2a)	DRSC18690	-0.07	-0.56			
CG8089	DRSC07074	0.4	0.47			
CG14230	DRSC19586	0.17	0.25			
Acp26Ab (Accessory gland protein 26Ab)	DRSC01856	-7.63	0.27			reduced secretion
Papst2 (PAPS transporter 2)	DRSC10924	0.38	0.37			
Rev1 (DNA polymerase Rev1)	DRSC08264	-0.14	-1.18			
MFS14 (Major Facilitator Superfamily Transporter 14)	DRSC06524	0.26	0.27	1.01	-0.32	
Fbl6 (F-box and leucine-rich repeat protein 6)	DRSC06335	0.3	0.36			
mRpS28 (mitochondrial ribosomal protein S28)	DRSC06939	-0.03	0.16			
CG6602	DRSC10673	0.39	0.44			
Trm7-32 (tRNA methyltransferase 7-32)	DRSC15741	0.42	0.46			
CG30340	DRSC05167	-0.26				
CG8206	DRSC20093	0.22	0.12			
CG30091	DRSC21809	-0.8	0.09			
CG14054	DRSC17909	0.07	0.27			
CG5793	DRSC15874	0	0.11			
ckd (cracked)	DRSC08418	0.22	0.29			
CG14811	DRSC17962	0.23	0.42			
Polr1A (RNA polymerase I subunit A)	DRSC07535	0.32	0.18			
parvin	DRSC19468	0.44	0.59			
kek3 (kekkon 3)	DRSC03553	0.51	-0.09	0.29	0.3	
kek3 (kekkon 3)	DRSC22830	-0.27	0.22			
Rh7 (Rhodopsin 7)	DRSC10529	0.21	0.08			
eIF3m (eukaryotic translation initiation factor 3 subunit m)	DRSC07142	-1.84	-1.98			reduced secretion
ENGase (Endo-beta-N-acetylglucosaminidase)	DRSC19952	-1.63	-0.01			
ENGase (Endo-beta-N-acetylglucosaminidase)	DRSC19953	0.12	0.53			
bgm (bubblegum)	DRSC03495	-1.66	-1.02			reduced secretion
mex1 (midgut expression 1)	DRSC11368	0.61	0.36			
CG7878	DRSC16330	0.14	0.22			
Srg3 (Sting-regulated gene 3)	DRSC08984	0.51	0.44			
Srg3 (Sting-regulated gene 3)	DRSC10178	0.6	0.32			
Nph (Nucleophosmin)	DRSC16342	0	0.25			
CG33303	DRSC02848	-1.9	-1.75			reduced secretion
nAChRalpha1 (nicotinic Acetylcholine Receptor alpha1)	DRSC13664	-2.2	-0.93			reduced secretion
nAChRalpha1 (nicotinic Acetylcholine Receptor alpha1)	DRSC13670	-2.1	-0.51			reduced secretion
nAChRalpha1 (nicotinic Acetylcholine Receptor alpha1)	DRSC13672	0.68	0.78			
nAChRalpha1 (nicotinic Acetylcholine Receptor alpha1)	DRSC17008	0.34	0.38			
